# In paper PMC9358472:
# Sequences of proteins named here, by UniProt entry; tags and fusion partners are left off.
# UniProt P23787: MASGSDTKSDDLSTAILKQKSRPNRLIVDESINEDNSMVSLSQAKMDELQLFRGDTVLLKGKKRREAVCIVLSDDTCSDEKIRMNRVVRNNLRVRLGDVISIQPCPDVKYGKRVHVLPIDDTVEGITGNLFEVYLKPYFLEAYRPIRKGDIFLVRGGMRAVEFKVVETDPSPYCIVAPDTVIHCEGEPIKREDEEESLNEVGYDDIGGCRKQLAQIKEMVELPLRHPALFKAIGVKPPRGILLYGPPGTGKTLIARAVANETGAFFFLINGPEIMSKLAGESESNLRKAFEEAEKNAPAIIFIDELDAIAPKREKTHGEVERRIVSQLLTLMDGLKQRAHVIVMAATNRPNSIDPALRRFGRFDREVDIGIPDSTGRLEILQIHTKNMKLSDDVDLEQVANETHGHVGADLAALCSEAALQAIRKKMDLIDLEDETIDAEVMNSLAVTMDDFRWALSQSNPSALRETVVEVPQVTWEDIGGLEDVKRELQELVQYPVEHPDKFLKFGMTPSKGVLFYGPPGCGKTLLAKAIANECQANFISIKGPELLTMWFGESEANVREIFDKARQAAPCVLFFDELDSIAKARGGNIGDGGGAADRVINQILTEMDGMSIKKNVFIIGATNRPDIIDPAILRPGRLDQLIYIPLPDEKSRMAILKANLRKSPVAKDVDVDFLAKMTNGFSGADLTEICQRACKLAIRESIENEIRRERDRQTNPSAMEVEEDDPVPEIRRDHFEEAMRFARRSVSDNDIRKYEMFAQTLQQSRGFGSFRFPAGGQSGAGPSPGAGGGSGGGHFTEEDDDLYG
# UniProt Q9YHZ6: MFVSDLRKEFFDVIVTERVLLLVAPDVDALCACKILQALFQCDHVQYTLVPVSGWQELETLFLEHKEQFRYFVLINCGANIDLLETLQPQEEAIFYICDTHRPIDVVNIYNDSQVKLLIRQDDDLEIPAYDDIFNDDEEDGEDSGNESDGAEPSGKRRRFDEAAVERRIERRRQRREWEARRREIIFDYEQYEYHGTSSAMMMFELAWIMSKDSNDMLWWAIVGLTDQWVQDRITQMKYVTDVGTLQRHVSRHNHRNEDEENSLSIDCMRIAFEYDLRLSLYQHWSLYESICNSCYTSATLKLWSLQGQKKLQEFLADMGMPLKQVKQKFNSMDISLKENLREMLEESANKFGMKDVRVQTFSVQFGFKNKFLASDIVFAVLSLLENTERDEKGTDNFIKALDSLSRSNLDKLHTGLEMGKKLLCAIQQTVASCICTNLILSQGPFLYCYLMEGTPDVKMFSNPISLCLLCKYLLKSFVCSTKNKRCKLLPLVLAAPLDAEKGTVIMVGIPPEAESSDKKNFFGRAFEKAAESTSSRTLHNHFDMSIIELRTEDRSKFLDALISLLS
# Results are given in words; binding and its absence hold for the method and conditions named. Binding seen in cells or lysates may run through a third protein. Some binding calls cover weakened binding; strength is not graded here.
# Target: p97 segregase (X. laevis (endogenous in egg extract)) (UniProt P23787)
# Assay: co-IP; p97, Cul2 or Ubxn7 immunoprecipitated from late S-phase chromatin of egg extract treated with p97i (NMS873); complexes released by Benzonase; ANIB100 buffer, 4 °C; Western blotting
substance,measurement,value
Cdc45 (from UniProt Q9YHZ6 1-567),binding,binds weakly
